In US20260365855A1, “TARGETED QUINOCYANINE DYES FOR THE INTRAOPERATIVE DELINEATION OF CANCER MARGINS” (THE TRUSTEES OF THE UNIVERSITY OF PENNSYLVANIA, priority 2022, published 2026):

Assay: Depth penetration comparisons of compound 1 vs. JAS239 and ICG through chicken breast tissue
Details: chicken breast tissue 1-3 mm
Method: Depth Penetration Comparisons of Compound 1 vs. JAS239 and ICG.
Compound 1, JAS239, and ICG were diluted in DMSO and placed in a 96-well black-well clear-bottom plate at concentrations from 0.1 μM to 100 μM. The plate was then imaged using the PhotonEtc IR Vivo using the NIR-II emission filter with excitation at 760, 808, 890, or 940 nm. Wells were then covered with thinly sliced raw chicken breast tissue from 1 mm to 3 mm thick. Imaging was then repeated for each tissue thickness.
Chicken breast tissue was layered over wells containing varying concentrations of each fluorophore in 1 mm sections. Fluorescence in the NIR-II window was measured following excitation at 760, 808, 890, and 940 nm. […] Tissue scattering, absorption, and autofluorescence decreases at increasing wavelengths of light. Thus, the improved resolution of compound 1 with increasing wavelength of excitation laser likely resulted from improved tissue penetration of the excitation laser. Compound 1 has a maximum absorption at 970 nm resulting in strong excitation of the probe and fluorescence conversion.

CCN1C=C/C(=C/C=C2\CCCC(/C=C/c3cc[n+](CC)c4ccccc34)=C2Cl)c2ccccc21.[I-] [compound 1, 4-((E)-2((E)-2-chloro-3-(2-((Z)-J-ethylquinolin-4(JH)-ylidene)-ethylidene)cyclohex-1-en-1-yl)vinyl)-J-ethylquinolin-1-ium iodide]
tissue depth up to which strong emission / resolvable signal is observed: up to 3 mm
